In PubChem BioAssay AID662 (National Center for Advancing Translational Sciences (NCATS), 2007):
The list shows a part of the results. The main result of the screen is listed elsewhere. These columns were measured beside it and carry no call. Most of these compounds were active or inconclusive in the main read-out, so they are no random draw. Potencies come from curve fits of mixed quality, noted in brackets.

Experiment: Cell signaling CRE-BLA (Fsk stim)
Details: CHO CRE-bla reporter (cAMP response element driving beta-lactamase), forskolin EC10, beta-lactamase ratio; measured here: 460 nm blue channel
In short: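 CHO CRE-bla cells, overnight plating in Opti-MEM with 0.5% dialyzed FBS; cpd titration + EC10 NKH 477, 3 h 37 °C; CCF4 2 h RT; ex 405/em 460 vs 530 ratio → %Activity, AC50.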
In the case of `COCCn1c(=O)c(-c2cccc(C#N)c2)nc2cnc(N3CCN(C)CC3)nc21`, the AC50 is reported as 12.6 µM [rising, partial curve]. In the case of `COc1ccc2[nH]c(=O)c(CN(CC3CCCO3)C(=O)Nc3ccccc3OC)cc2c1` (configuration not stated), the AC50 is reported as 12.6 µM [rising, single point]. In the case of `C=CCn1cnc2c(c1=O)c1nc3ccccc3nc1n2/N=C/c1cccc(OC)c1OC`, the AC50 is reported as 6.31 µM [rising, partial curve]. With `COc1ccc(Cc2nnc(NC(=O)c3ccco3)s2)cc1OC` the AC50 was 12.6 µM [rising, partial curve]. For `CCC(=O)Nc1nc(C)c(C(=O)N2CCCCC2)s1`, the AC50 was 31.6 µM [falling, partial curve]. In the case of `Cc1ccc2[nH]c(=O)c(CN(Cc3cccs3)Cc3nnnn3Cc3ccccc3)cc2c1`, the AC50 is reported as 7.94 µM [falling, partial curve, poor fit]. For `CCCCN(CCCC)C(=O)CCS(=O)(=O)c1ccc2c(c1)n(C)c(=O)c(=O)n2C`, the AC50 was 3.98 µM [falling, partial curve]. With `CCOc1cc(C(=O)NCc2nnc(SCC(=O)OC)n2C)cc(OCC)c1OCC` the AC50 was 25.1 µM [rising, single point]. For `COc1ccc(OC)c(N)c1`, the AC50 was 0.1 µM [falling, full curve, poor fit]. With `COc1ccccc1-c1ccc2ncnc(NC3CC3)c2c1` the AC50 was 5.01 µM [rising, full curve]. With `O=C(O)CCCNc1cc(N2CCC3(CC2)OCCO3)c2noc3c2c1C(=O)c1ccccc1-3` the AC50 was 10 µM [rising, partial curve]. With `CCOc1ccccc1NC(=O)N1CCCC(c2nc3c(nnn3Cc3ccc(C)cc3)c(=O)[nH]2)C1` (configuration not stated) the AC50 was 10 µM [rising, partial curve]. For `N#Cc1nc(COc2ccc(Cl)cc2Cl)oc1N1CCOCC1`, the AC50 was 10 µM [rising, partial curve]. For `CCOC(=O)Oc1c(OC)cc(C(=O)O[C@H]2C[C@H]3CN4CCc5c([nH]c6cc(OC)ccc56)[C@@H]4C[C@H]3[C@@H](C(=O)OC)[C@@H]2OC)cc1OC`, the AC50 was 10 µM [falling, single point]. For `Cc1c(C(=O)c2no[n+]([O-])c2C(=O)c2cnn(C)c2C)cnn1C`, the AC50 was 20 µM [falling, partial curve]. For `COc1ccc2[nH]cc(CCNc3ccnc(-c4ccc(C(=O)N(C)C)cc4)n3)c2c1`, the AC50 was 3.98 µM [rising, full curve]. With `CCSc1ncc(Cl)c(C(=O)Nc2ccc(S(=O)(=O)Nc3onc(C)c3C)cc2)n1` the AC50 was 12.6 µM [rising, single point]. With `COc1ccc(NC(=O)C2CCCN2C(=O)NC2CCCCC2)cc1OC` (configuration not stated) the AC50 was 0.02 µM [falling, full curve]. In the case of `Cc1nc2cnc(N3CCNCC3)nc2n(Cc2ccc(F)cc2)c1=O`, the AC50 is reported as 25.1 µM [rising, single point]. With `CCOC(=O)c1[nH]c2ccc(F)cc2c1NC(=O)c1cc(OC)c(OC)c(OC)c1` the AC50 was 1.58 µM [rising, full curve]. With `O=c1c(-c2ccc(F)c(F)c2)nc2cncnc2n1-c1ccccc1` the AC50 was 12.6 µM [rising, partial curve]. With `CCCCCCNC(=O)Cc1nc2nc(C)cc(C)n2n1` the AC50 was 0.398 µM [rising, single point]. With `O=C(c1ccc(F)cc1)c1ccc(N2CCCC2)cc1` the AC50 was 12.6 µM [rising, partial curve]. In the case of `CCN(Cc1cc2cc(OC)ccc2[nH]c1=O)C(=O)Cc1ccc(OC)cc1`, the AC50 is reported as 12.6 µM [rising, partial curve]. With `c1ccc(-n2ncc3c2ncn2nc(-c4ccco4)nc32)cc1` the AC50 was 6.31 µM [rising, partial curve]. For `CCCn1nc(C(=O)N2CC(=O)Nc3ccccc32)c2ccccc2c1=O`, the AC50 was 12.6 µM [rising, partial curve]. For `COc1cccc(Cn2c(=O)c(-c3cc(F)cc(F)c3)nc3cnc(N4CCN(C)CC4)nc32)c1`, the AC50 was 3.16 µM [rising, full curve]. In the case of `[O-]/[N+](=C\c1ccccc1)[C@@H]1CCCC[C@@H]1/[N+]([O-])=C/c1ccccc1`, the AC50 is reported as 25.1 µM [rising, single point]. In the case of `Cc1ccc(C)c(-n2nnnc2Sc2nnnn2-c2ccccc2)c1`, the AC50 is reported as 10 µM [falling, partial curve]. For `COc1ccc2[nH]cc(CCNc3nc(-c4ccc(C(=O)N(C)C)cc4)nc4ccccc34)c2c1`, the AC50 was 0.794 µM [rising, full curve]. With `CC1(C)N([O-])C(c2ccccc2)=C[N+](=O)C1(C)C` the AC50 was 5.01 µM [falling, partial curve]. With `COc1ccc2c(c1)c1c(n2C(C)=O)C(OC(C)=O)=NCC1` the AC50 was 15.8 µM [rising, partial curve]. In the case of `Fc1ccc(Nc2nc(N3CCOCC3)c3ccccc3n2)cc1`, the AC50 is reported as 3.98 µM [falling, single point]. For `COc1cccc(Nc2ncc3ncc(=O)n(CCc4ccccc4)c3n2)c1`, the AC50 was 10 µM [rising, partial curve]. For `FC(F)(F)c1ccccc1-c1nccc(NCCN2CCOCC2)n1`, the AC50 was 2.51 µM [rising, full curve]. With `Nc1nonc1-c1nc2ccccc2n1CC(=O)NC1CCCC1` the AC50 was 0.126 µM [falling, partial curve, poor fit]. For `O=C1CCCN1CCCn1cnc2c([nH]c3ccc(F)cc32)c1=O`, the AC50 was 10 µM [rising, partial curve]. For `O=C(CSc1nnc(Cc2cc(=O)[nH]c(=O)[nH]2)n1-c1ccccc1)N1CCCc2ccccc21`, the AC50 was 1.58 µM [falling, partial curve]. With `O=C(CCSc1nnc2scc(-c3ccccc3)n12)NCc1ccc2c(c1)OCO2` the AC50 was 10 µM [rising, partial curve]. With `CCOC(=O)C1CCN(CC(=O)Nc2c(C(=O)OC)[nH]c3cccc(Cl)c23)CC1` the AC50 was 12.6 µM [falling, partial curve, poor fit]. With `O=C(O)COc1nsnc1N1CCOCC1` the AC50 was 25.1 µM [falling, single point]. With `COc1ccc(CCN2C(=O)c3[nH]nc(-c4ccccc4O)c3C2c2ccccc2)cc1OC` (configuration not stated) the AC50 was 10 µM [rising, single point]. With `CCOC(=O)CC1(C)NC(=O)c2c(C)sc(C(=O)OCC)c2N1` (configuration not stated) the AC50 was 15.8 µM [rising, partial curve]. With `COCCn1c(-c2ccc(OC)c(OC)c2)nc2ccccc21` the AC50 was 15.8 µM [rising, single point]. With `O=C(Cn1cnc2c(cnn2-c2ccc(F)cc2)c1=O)NCC1CCCO1` (configuration not stated) the AC50 was 0.0316 µM [rising, full curve]. With `Cc1ccc(-n2nnnc2SCC(=O)Nc2c(C)n(C)n(-c3ccccc3)c2=O)cc1` the AC50 was 25.1 µM [rising, single point]. With `COc1ccc(N2C(=O)CC(Sc3ncn[nH]3)C2=O)c(OC)c1` (configuration not stated) the AC50 was 1 µM [falling, full curve]. For `Cc1cccc(CSc2ncnc3nc[nH]c23)c1`, the AC50 was 5.01 µM [falling, full curve, poor fit]. With `CSc1ccc(/C=N/n2c(C)cc(C)cc2=O)cc1` the AC50 was 0.316 µM [rising, full curve]. With `c1ccc(CN2C3=NCCCN3c3ccccc32)cc1` the AC50 was 25.1 µM [falling, single point]. In the case of `CCCCn1cc(C(C)(C)C)c(C#N)c1NC(C)=O`, the AC50 is reported as 3.98 µM [rising, single point]. For `Cc1ccc(-n2c(SCC(=O)NCC3CCCO3)nc3n[nH]c(C)c3c2=N)cc1Cl` (configuration not stated), the AC50 was 12.6 µM [rising, single point]. With `CS(=O)(=O)c1nc(-c2ccccc2)cc(C(F)(F)F)n1` the AC50 was 1.58 µM [falling, partial curve]. In the case of `Oc1ccccc1-c1nnc(-c2ccc(C(F)(F)F)cc2)o1`, the AC50 is reported as 0.126 µM [falling, full curve]. For `O=C(NCCN1CCNCC1)c1ccccn1`, the AC50 was 0.00631 µM [falling, full curve, poor fit]. In the case of `Cc1ccc(S(=O)(=O)N2CCOCC2)cc1C(=O)Nc1nc(-c2cccnc2)cs1`, the AC50 is reported as 25.1 µM [rising, single point]. For `CCSc1nnc(NC(=O)C2Cc3ccccc3CN2C(=O)c2ccco2)s1` (configuration not stated), the AC50 was 2 µM [falling, full curve]. For `Cc1cc(NC(=O)c2cc(-c3cccs3)nc3ccccc23)no1`, the AC50 was 10 µM [rising, partial curve]. With `CC(=O)N1c2ccc(S(=O)(=O)CCC(=O)O)cc2CC1C` (configuration not stated) the AC50 was 0.2 µM [falling, full curve]. With `CCOC(=O)c1cc(-c2ccncc2)nc2c1c(C)nn2-c1ccccn1` the AC50 was 0.631 µM [rising, full curve]. With `O=C(Nc1ccc(Cl)cc1C(=O)Nc1ccccn1)c1ccco1` the AC50 was 10 µM [rising, partial curve]. In the case of `O=C(CSc1ncccc1-c1nc2ccccc2[nH]1)NCc1ccco1`, the AC50 is reported as 6.31 µM [falling, partial curve]. For `Cc1ccc(-n2nc(C)c3cc(C(=O)O)sc32)cc1`, the AC50 was 7.94 µM [rising, partial curve]. With `COC(=O)c1cc(Br)c(=O)n(CCC2=CCCCC2)c1` the AC50 was 20 µM [rising, single point]. For `CCCSc1nc2c(cnn2-c2ccc(C)cc2)c(=O)[nH]1`, the AC50 was 5.01 µM [rising, partial curve]. For `COc1cc(-c2nc(S(=O)(=O)c3ccc(C)cc3)c(N(C)C)o2)cc(OC)c1OC`, the AC50 was 0.794 µM [rising, full curve]. For `CCOC(=O)CNc1nc(-c2ccncc2)nc2ccccc12`, the AC50 was 5.01 µM [rising, partial curve].
